{"source": "PubChem BioAssay AID743121 (NCATS, 2013)", "screen": "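Partners whose loss is lethal together with topoisomerase I blockade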 (primary screen)", "cell system": "MDA-MB-231 cells, a human breast cancer line", "reagents": "single siRNA against human genes, 20 nM siRNA (0.8 pmol per well)", "timing": "120 h (drug added 48 h after transfection, read 72 h later)", "treatment": "camptothecin 20 nM (about EC30) for 72 h; vehicle 0.1% DMSO in parallel plates", "measurement": "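CellTiter-Glo ATP signal, scaled to control siRNA as percent viability; sensitisation given as log2 of untreated divided by camptothecin-treated viability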", "direction": "log2 vehicle/camptothecin viability: higher = stronger sensitisation to camptothecin; viability with camptothecin: higher = more viable cells", "active means": "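Active genes have an RSA gene-level p-value below 0.001, computed from the ratios of their separate siRNAs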", "note": "In all, the deposit lists about 26,000 reagents; shown is a part drawn at random. 167 of all reagents (0.63%) count as active. 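Calls are per gene from RSA p-values that are not deposited; an individual active-marked siRNA can sensitise only weakly.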 Unmarked entries are inactive. Reagents against one gene are numbered here. Not all columns of the deposit are shown."}
The opening 3 entries as a preview:
{"gene": "STUB1", "siRNA no.": 1, "log2 vehicle/camptothecin viability": -0.128, "viability with camptothecin (% of control)": 49.6}
{"gene": "STUB1", "siRNA no.": 2, "log2 vehicle/camptothecin viability": 0.342, "viability with camptothecin (% of control)": 31.7}
{"gene": "STUB1", "siRNA no.": 3, "log2 vehicle/camptothecin viability": -0.327, "viability with camptothecin (% of control)": 97.8}

The list itself, repeating the preview:
{"gene": "STUB1", "siRNA no.": 1, "log2 vehicle/camptothecin viability": -0.128, "viability with camptothecin (% of control)": 49.6}
{"gene": "STUB1", "siRNA no.": 2, "log2 vehicle/camptothecin viability": 0.342, "viability with camptothecin (% of control)": 31.7}
{"gene": "STUB1", "siRNA no.": 3, "log2 vehicle/camptothecin viability": -0.327, "viability with camptothecin (% of control)": 97.8}
{"gene": "STUB1", "siRNA no.": 4, "log2 vehicle/camptothecin viability": 0.181, "viability with camptothecin (% of control)": 39.1}
{"gene": "PRSS58", "siRNA no.": 1, "log2 vehicle/camptothecin viability": -0.265, "viability with camptothecin (% of control)": 44.9}
{"gene": "PRSS58", "siRNA no.": 2, "log2 vehicle/camptothecin viability": -0.221, "viability with camptothecin (% of control)": 86.2}
{"gene": "PRSS58", "siRNA no.": 3, "log2 vehicle/camptothecin viability": -0.348, "viability with camptothecin (% of control)": 85.8}
{"gene": "PRSS58", "siRNA no.": 4, "log2 vehicle/camptothecin viability": -0.102, "viability with camptothecin (% of control)": 122}
{"gene": "PLXDC1", "siRNA no.": 1, "log2 vehicle/camptothecin viability": -0.0284, "viability with camptothecin (% of control)": 78.9}
{"gene": "PLXDC1", "siRNA no.": 2, "log2 vehicle/camptothecin viability": -0.287, "viability with camptothecin (% of control)": 72.3}
{"gene": "PLXDC1", "siRNA no.": 3, "log2 vehicle/camptothecin viability": -0.312, "viability with camptothecin (% of control)": 117}
{"gene": "PLXDC1", "siRNA no.": 4, "log2 vehicle/camptothecin viability": 0.291, "viability with camptothecin (% of control)": 60.4}
{"gene": "FPR1", "siRNA no.": 1, "log2 vehicle/camptothecin viability": 0.139, "viability with camptothecin (% of control)": 84.8}
{"gene": "FPR1", "siRNA no.": 2, "log2 vehicle/camptothecin viability": 0.188, "viability with camptothecin (% of control)": 87.6}
{"gene": "FPR1", "siRNA no.": 3, "log2 vehicle/camptothecin viability": -0.364, "viability with camptothecin (% of control)": 24.4}
{"gene": "FPR1", "siRNA no.": 4, "log2 vehicle/camptothecin viability": -0.427, "viability with camptothecin (% of control)": 86.8}
{"gene": "GPR18", "siRNA no.": 1, "log2 vehicle/camptothecin viability": -0.361, "viability with camptothecin (% of control)": 76.7}
{"gene": "GPR18", "siRNA no.": 2, "log2 vehicle/camptothecin viability": -0.194, "viability with camptothecin (% of control)": 40.5}
{"gene": "GPR18", "siRNA no.": 3, "log2 vehicle/camptothecin viability": -0.656, "viability with camptothecin (% of control)": 70.3}
{"gene": "GPR18", "siRNA no.": 4, "log2 vehicle/camptothecin viability": -0.213, "viability with camptothecin (% of control)": 75.6}
{"gene": "PPP1R3B", "siRNA no.": 1, "log2 vehicle/camptothecin viability": -0.163, "viability with camptothecin (% of control)": 115}
{"gene": "PPP1R3B", "siRNA no.": 2, "log2 vehicle/camptothecin viability": -0.353, "viability with camptothecin (% of control)": 116}
{"gene": "PPP1R3B", "siRNA no.": 3, "log2 vehicle/camptothecin viability": 0.48, "viability with camptothecin (% of control)": 42.2}
{"gene": "PPP1R3B", "siRNA no.": 4, "log2 vehicle/camptothecin viability": -0.0244, "viability with camptothecin (% of control)": 60.1}
